Measurements published in patent US20080027143A1, “CHEMICAL FORMULATION FOR AN INSECTICIDE” (priority 2006, published 2008).
Some compounds share one wording; it may come from a single statement.

Test: Damage to surfaces: solvent droplet on nitrocellulose lacquer finish
Details: droplet of solvent on clear nitrocellulose lacquer finish for 15 minutes, then wiped dry
In the case of CCCCOCCO [Ethylene Glycol Butyl Ether], the “Observation (damage to lacquer finish)” value is reported as “Lacquer finish partially dissolved”. For CC(O)CO (stereo not shown) [Propylene Glycol], the “Observation (damage to lacquer finish)” value was “No impact on lacquer finish”. For CC(C)=O [Acetone], the “Observation (damage to lacquer finish)” value was “Lacquer finish completely dissolved”. With CCCCOCCOCCO [Diethylene Glycol Butyl Ether] the “Observation (damage to lacquer finish)” value was “No impact on lacquer finish”. For CCCCCCC [n-Heptane], the “Observation (damage to lacquer finish)” value was “No impact on lacquer finish”. In the case of CCO [Ethanol], the “Observation (damage to lacquer finish)” value is reported as “No impact on lacquer finish”. With CN1CCCC1=O [N-Methyl Pyrrolidone] the “Observation (damage to lacquer finish)” value was “Lacquer finish completely dissolved”. For O [Water], the “Observation (damage to lacquer finish)” value was “No impact on lacquer finish”. For CCCOCC(C)O (stereo not shown) [DOWANOL ® PnP], the “Observation (damage to lacquer finish)” value was “Lacquer finish partially dissolved”. For CCCCCCCCCCCCCC(=O)OC(C)C [Isopropyl Myristate], the “Observation (damage to lacquer finish)” value was “No impact on lacquer finish”.
